{"sequences": {"note": "Sequences of proteins named here, by UniProt entry; tags and fusion partners are left off.", "UniProt P04483, whole entry, added parts left off": "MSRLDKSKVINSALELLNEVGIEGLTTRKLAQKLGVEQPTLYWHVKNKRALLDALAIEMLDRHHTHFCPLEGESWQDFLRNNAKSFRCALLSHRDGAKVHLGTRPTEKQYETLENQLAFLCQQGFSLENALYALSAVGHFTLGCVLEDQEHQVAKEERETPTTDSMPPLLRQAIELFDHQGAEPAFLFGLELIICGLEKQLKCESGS"}, "source": "patent US20080118979A1", "about": "“Methods of regulating expression of genes or of gene products using substituted tetracycline compounds” (Paratek Pharmaceuticals, Inc., priority 2006, published 2008)", "target": "T1, tTA (Escherichia coli, UniProt P04483)", "T1 construct": "expressed in transfected cells; host or cells: X1/5 cells (chromosomally integrated tTA gene)", "experiment": "Dose response with X1/5 cells (tTA gene and luciferase gene controlled by a tetracycline-inducible promoter)", "assay_type": "cell-based", "details": "X1/5 cells, 0, 30 through 3000 ng/mL, three days incubation", "note": "At least one compound was matched to its structure with a doubt left.", "data": [{"smiles": "C[C@H]1c2cccc(O)c2C(=O)C2=C(O)[C@]3(O)C(=O)C(C(N)=O)=C(O)[C@@H](N(C)C)[C@@H]3[C@@H](O)[C@@H]21", "note": "[doxycycline]", "values": [{"measurement": "luciferase activity", "result": "turned off the luc gene"}]}]}
